These are yes or no findings as the source states them, for the method shown. Some entries that bind do so weakly or less than the wild type.
Tests used:
[1] = molecular target: recombinant His6-tagged Cε2 protein of human IgE (human) (UniProt P01854); experiment: ELISA on coated recombinant His6-tagged Cε2
[2] = molecular target: recombinant human IgE Cε2-4 protein (human) (UniProt P01854); experiment: ELISA on coated Cε2-4

Chains of the proteins cited; added tags and fusions are not shown. Lines headed by an entry give the natural chain unless they say otherwise; changes in a name come on top. A line that says so, or that is headed by a name, gives the form on record, which may keep a tag or linker. Residues count along the entry.
recombinant His6-tagged Cε2 protein of human IgE (P01854, residues 104-210): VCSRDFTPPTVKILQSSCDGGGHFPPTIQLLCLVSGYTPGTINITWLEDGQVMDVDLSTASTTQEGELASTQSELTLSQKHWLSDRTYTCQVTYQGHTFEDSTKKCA
recombinant human IgE Cε2-4 protein (P01854, form named): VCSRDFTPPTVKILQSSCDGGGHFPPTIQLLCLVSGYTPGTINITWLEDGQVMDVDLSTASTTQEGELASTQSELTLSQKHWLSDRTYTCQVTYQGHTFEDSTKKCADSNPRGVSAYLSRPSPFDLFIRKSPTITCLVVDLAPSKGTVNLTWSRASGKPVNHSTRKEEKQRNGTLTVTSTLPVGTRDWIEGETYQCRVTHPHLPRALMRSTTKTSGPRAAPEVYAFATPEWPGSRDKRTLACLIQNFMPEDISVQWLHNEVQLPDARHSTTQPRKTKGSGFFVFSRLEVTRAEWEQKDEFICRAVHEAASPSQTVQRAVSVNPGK

binding [1]	binding [2]	Binder
binds	binds	21626B-C4-8 Fab (Fab, V domains shown) VH: QSLEESGGRLVTPGTPLTLTCTASGFSLSSYYMSWVRQAPEKGLEWIGIIYPSGNTYYANWANGRFAISRTSTTVDLKITSPTTEDTATYFCARDSGYPDIWGPGTLVTVSL VL: ALVMTQTPSSVSAAVGGTVTINCQASQSISSYLSWYQQKPGQRPKPLIYETSKLASGVSSRFSGSGSGTEFTLTISGVECADAATYYCQQDAGVINVHNTFGGGTEVVVK
binds	–	21626B-A8 Fab (Fab, V domains shown) VH: QLEESGGRLVTPGTPLTLTCTVSGIDLSSDSIGWVRQAPGKGLEWIGIIYPSGNVYYASWAKGRLTISKTSTTVELKMTSLTTEDTATYFCARDYYSTTLDIWGPGTLVTVSL VL: ALVMTQTPSSVSAVVGGTVTINCQASQSISSYLSWYQQKPGQRPKPLIYEASKLASGVSSRFKGSGSGTEFTLTISGVECADAATYYCQQDAAVMNVDNTFGGGTEVVVK
binds	binds	21626B-H3 Fab (Fab, V domains shown) VH: QSLGESRGRLVTPGGSLTLTCTASGFSLSSYAMGWVRQAPGKGLEYIGWISAGGTTYYASWVNSRFTISRTSTTVDLEMTSLTTEDTATYFCAREGTGWGAYDIWGPGTLVTVSL VL: ALVMTQTPASVSAAVGGTVTINCQASQSIHKYLSWYQQKPGQPPKLLIYRASTLASGVPSRFKGSGSGTQFTLTISDLECDDAATYYCQQDAAVISIDNSFGGGTEVVVK

Source: patent US20240182599A1
